The data set can be described thus: self-splicing fitness, log relative to wild type (ln ratio); higher = more splicing; Tetrahymena group I intron in knt gene, E. coli kanamycin selection, DiMSum; sequences stand for … in CUCUCU…GGAGGGAAAAGUUAUCAGGCAUGCACCUGGUAGCUAGUCUUUAAACCAAUAGAUUGCAUCGGUUUAAAAGGCAAGACCGUCAAAUUGCGGGAAAGGGGUCAACAGCCGUUCAGUACCAAGUCUCAGGGGAAACUUUGAGAUGGCCUUGCAAAGGGUAUGGUAAUAAGCUGACGGACAUGGUCCUAACCACGCAGCCAAGUCCUAAGUCAACAGAUCUUCUGUUGAUAUGGAUGCAGUUCACAGACUAAAUGUCGGUCGGGGAAGAUGUAUUCUUCUCAUAAGAUAUAGUCGGACCUCUCCUUAAUGGGAGCUAGCGGAUGAAGUGAUGCAACACUGGAGCCGCUGGGAACUAAUUUGUAUGCGAAAGUAUAUUGAUUAGUUUUGGAGUACUCGUGGUCG
The method in brief: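 Colonies from six replicate transformations of E. coli BL21(DE3) were pooled and amplicon-sequenced on an Illumina HiSeq 2500. The library placed an intron with all eight P1ex-region nucleotides randomised inside the knt kanamycin-resistance gene on pET-22b(+), and cells grew overnight at 37°C or 30°C on LB agar with or without 25 μg/mL kanamycin (plus 100 μg/mL carbenicillin, 50 μM IPTG, 0.2% rhamnose). Fitness is the DiMSum error-weighted combination of wild-type-normalised replicate fold changes, kanamycin versus none.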

± gives the uncertainty stated by the source. Many of these values have a large error.

With GCUGAGCAAUAUUACGGAGU, the “self-splicing fitness (ln)” value (30 °C) was -3.87 ± 0.6.

Regarding UAUAAGCAAUAUUACGCGGC, the “self-splicing fitness (ln)” value is -3.53 ± 0.35 (30 °C) and -2.92 ± 0.47 (37 °C).

Regarding UAGGAGCAAUAUUACGCAAA, for the setting “37 °C”, the “self-splicing fitness (ln)” value is -2.54 ± 0.54.

On to AAGGAGCAAUAUUACGUCGC, for which, under “30 °C”, the “self-splicing fitness (ln)” value is -3.93 ± 0.6.

With UAGUAGCAAUAUUACGGAAA, the “self-splicing fitness (ln)” value (30 °C) was -1.35 ± 0.73.

As to AGUGAGCAAUAUUACGCCUU, the “self-splicing fitness (ln)” value is, setting by setting: (30 °C) -3.27 ± 0.61; (37 °C) -1.45 ± 0.68.

Take UCGUAGCAAUAUUACGCUAC: the “self-splicing fitness (ln)” value is -4.4 ± 1 (30 °C) and -0.234 ± 1.4 (37 °C).

AUCAAGCAAUAUUACGUUGC: the “self-splicing fitness (ln)” value by setting is: (30 °C) -3.84 ± 0.18; (37 °C) -2 ± 0.15.

Regarding GAAGAGCAAUAUUACGGUGU, the “self-splicing fitness (ln)” value is, setting by setting: (30 °C) -3.49 ± 0.14; (37 °C) -3.02 ± 0.23.

Turning to GCGGAGCAAUAUUACGCUUA, the “self-splicing fitness (ln)” value (30 °C) turned out to be 1.37 ± 1.1.

On to CUGGAGCAAUAUUACGCCCU, for which the “self-splicing fitness (ln)” value (30 °C) is -1.32 ± 1.4 and the “self-splicing fitness (ln)” value (37 °C) was -1.27 ± 0.72.

With UGCAAGCAAUAUUACGCUAC, under “37 °C”, the “self-splicing fitness (ln)” value is -2.75 ± 0.76.

In the case of CAGGAGCAAUAUUACGGAAC, the “self-splicing fitness (ln)” value reads like this: (30 °C) -3.67 ± 0.43; (37 °C) -2.53 ± 0.5.

In the case of GGUAAGCAAUAUUACGCCUG, for the setting “30 °C”, the “self-splicing fitness (ln)” value is -3.68 ± 0.6.

As to UUAUAGCAAUAUUACGCUAC, the “self-splicing fitness (ln)” value (30 °C) was -3.9 ± 0.6.

In the case of CAUAAGCAAUAUUACGGAAA, where the note is “30 °C”, the “self-splicing fitness (ln)” value was -3.85 ± 0.52.

With CACUAGCAAUAUUACGAAUA, the “self-splicing fitness (ln)” value is -3.16 ± 0.37 (30 °C) and -2.33 ± 0.18 (37 °C).

UACAAGCAAUAUUACGCGGG: the “self-splicing fitness (ln)” value is, setting by setting: (30 °C) -2.43 ± 0.086; (37 °C) -1.25 ± 0.099.

For AACCAGCAAUAUUACGUCGG, the “self-splicing fitness (ln)” value is, setting by setting: (30 °C) -3.79 ± 0.12; (37 °C) -1.41 ± 0.094.

On to GACUAGCAAUAUUACGAUGG, for which the “self-splicing fitness (ln)” value (30 °C) was -3.49 ± 0.13 and the “self-splicing fitness (ln)” value (37 °C) is -2.24 ± 0.12.

With GAGUAGCAAUAUUACGGCAG, the “self-splicing fitness (ln)” value is, setting by setting: (30 °C) -3.3 ± 0.61; (37 °C) -3.64 ± 0.52.

Take AUCGAGCAAUAUUACGAACA: the “self-splicing fitness (ln)” value was -2.91 ± 0.24 (30 °C) and -1.27 ± 0.2 (37 °C).

These data come from the supplement of paper PMC7877785.
